The assay deals with GST-tagged Lrp1 ICD (a.a. 4445–4544 of human LRP1) (human) (UniProt Q07954). Put plainly: pull-down; GST pull-down with GST-Lrp1-ICD and recombinant Pparγ protein; both purified.

Amino acid sequences for entries named in this document (tags omitted). Residues count along the entry.
UniProt Q07954, residues 4445-4544: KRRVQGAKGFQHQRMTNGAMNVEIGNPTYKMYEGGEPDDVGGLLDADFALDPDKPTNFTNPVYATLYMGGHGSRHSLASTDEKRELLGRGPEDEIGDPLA
UniProt P37231: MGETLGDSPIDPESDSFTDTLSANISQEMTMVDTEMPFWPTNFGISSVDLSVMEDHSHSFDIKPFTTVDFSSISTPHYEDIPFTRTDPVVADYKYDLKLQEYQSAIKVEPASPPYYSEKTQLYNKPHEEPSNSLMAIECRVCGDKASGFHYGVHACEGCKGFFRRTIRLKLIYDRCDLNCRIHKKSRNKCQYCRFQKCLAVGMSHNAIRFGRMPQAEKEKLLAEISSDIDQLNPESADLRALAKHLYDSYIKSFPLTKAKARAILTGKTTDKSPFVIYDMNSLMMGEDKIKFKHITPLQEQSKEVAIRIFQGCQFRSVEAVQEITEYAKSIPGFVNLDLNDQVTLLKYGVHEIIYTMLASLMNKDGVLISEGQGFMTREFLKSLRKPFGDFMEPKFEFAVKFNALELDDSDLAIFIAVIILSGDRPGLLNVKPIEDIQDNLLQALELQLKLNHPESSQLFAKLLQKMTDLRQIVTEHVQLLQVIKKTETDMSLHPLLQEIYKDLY

These are yes or no findings as the source states them, for the method shown. Some results given as binding are weak or reduced against the parent protein; the word gives no strength.

Consider “recombinant Pparγ protein (from UniProt P37231 1-505)”, for which the binding result was “binds”.

The values above are taken from paper PMC5394236.
